The list shows a part of the results. Entries without a call are filed as inconclusive in the source.
Biological target: Zinc finger protein mex-5 (Caenorhabditis elegans) (UniProt Q9XUB2)
Test: blockers of C. elegans MEX-5/TCR-2 RNA interaction – biochemical, fluorescence polarization, MBP-MEX-5, FITC-TCR2 RNA, dose response (AID 2739)
Details: MBP-MEX-5 / FITC-TCR2 RNA fluorescence polarization, 1 h; at 135 µM (top of the series)

Chains of the proteins cited; added tags and fusions are not shown. Lines headed by an entry give the natural chain unless they say otherwise; changes in a name come on top.
UniProt Q9XUB2: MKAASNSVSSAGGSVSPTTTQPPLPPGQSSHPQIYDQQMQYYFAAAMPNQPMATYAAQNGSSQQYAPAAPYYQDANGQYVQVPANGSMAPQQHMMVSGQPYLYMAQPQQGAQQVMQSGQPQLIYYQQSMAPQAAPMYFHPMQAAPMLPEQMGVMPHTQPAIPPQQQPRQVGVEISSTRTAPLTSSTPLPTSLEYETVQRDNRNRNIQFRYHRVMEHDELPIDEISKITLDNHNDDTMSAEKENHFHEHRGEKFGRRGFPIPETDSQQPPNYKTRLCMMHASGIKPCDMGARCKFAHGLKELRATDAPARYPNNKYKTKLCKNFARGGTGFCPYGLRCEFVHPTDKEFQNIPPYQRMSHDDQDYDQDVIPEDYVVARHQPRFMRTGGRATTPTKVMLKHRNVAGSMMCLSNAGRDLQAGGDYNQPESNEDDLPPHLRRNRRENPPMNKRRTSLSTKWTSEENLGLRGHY

- activity, negative = inhibition: 90.1%
Structure (SMILES): Oc1ccc(CCNc2c3ccccc3nc3ccccc23)cc1O
